# Reference: the supplement of paper PMC11732987, “Enantioselective OTUD7B fragment discovery through chemoproteomics screening and high-throughput optimisation” (Communications Chemistry, 2025)
# Sequences of proteins named here, by UniProt entry; tags and fusion partners are left off. A change or cut given only in a name is not applied to a line headed by its entry. Residues count along the entry.
# UniProt Q9P2B7: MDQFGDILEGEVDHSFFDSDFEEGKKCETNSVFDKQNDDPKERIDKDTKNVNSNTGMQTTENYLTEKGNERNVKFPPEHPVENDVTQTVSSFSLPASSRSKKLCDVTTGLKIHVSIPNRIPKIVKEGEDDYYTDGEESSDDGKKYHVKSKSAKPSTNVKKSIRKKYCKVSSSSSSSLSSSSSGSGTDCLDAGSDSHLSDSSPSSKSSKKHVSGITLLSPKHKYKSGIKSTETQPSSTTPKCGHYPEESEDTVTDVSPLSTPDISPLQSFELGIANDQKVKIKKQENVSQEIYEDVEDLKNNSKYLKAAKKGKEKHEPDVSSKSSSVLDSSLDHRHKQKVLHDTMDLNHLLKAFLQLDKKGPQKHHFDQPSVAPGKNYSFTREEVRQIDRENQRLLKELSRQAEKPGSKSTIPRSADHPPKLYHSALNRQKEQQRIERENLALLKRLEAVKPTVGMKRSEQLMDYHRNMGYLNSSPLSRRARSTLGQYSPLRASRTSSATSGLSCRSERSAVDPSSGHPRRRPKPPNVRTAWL
# UniProt Q6P1N0, 303-346: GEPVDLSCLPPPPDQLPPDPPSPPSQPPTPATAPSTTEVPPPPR
# UniProt P50991: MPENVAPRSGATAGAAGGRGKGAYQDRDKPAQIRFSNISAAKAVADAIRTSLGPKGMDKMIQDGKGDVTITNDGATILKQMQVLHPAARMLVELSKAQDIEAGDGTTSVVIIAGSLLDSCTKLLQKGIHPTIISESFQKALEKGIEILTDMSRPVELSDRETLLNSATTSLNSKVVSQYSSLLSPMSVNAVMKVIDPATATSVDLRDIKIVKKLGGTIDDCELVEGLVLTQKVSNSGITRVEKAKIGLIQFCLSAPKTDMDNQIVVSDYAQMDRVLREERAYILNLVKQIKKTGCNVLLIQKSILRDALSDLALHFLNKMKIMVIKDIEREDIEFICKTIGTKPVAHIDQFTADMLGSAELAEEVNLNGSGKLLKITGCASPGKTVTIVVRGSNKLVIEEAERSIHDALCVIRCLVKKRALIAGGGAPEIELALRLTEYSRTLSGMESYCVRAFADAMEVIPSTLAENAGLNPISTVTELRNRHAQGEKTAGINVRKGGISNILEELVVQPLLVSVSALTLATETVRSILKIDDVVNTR
# UniProt Q99741: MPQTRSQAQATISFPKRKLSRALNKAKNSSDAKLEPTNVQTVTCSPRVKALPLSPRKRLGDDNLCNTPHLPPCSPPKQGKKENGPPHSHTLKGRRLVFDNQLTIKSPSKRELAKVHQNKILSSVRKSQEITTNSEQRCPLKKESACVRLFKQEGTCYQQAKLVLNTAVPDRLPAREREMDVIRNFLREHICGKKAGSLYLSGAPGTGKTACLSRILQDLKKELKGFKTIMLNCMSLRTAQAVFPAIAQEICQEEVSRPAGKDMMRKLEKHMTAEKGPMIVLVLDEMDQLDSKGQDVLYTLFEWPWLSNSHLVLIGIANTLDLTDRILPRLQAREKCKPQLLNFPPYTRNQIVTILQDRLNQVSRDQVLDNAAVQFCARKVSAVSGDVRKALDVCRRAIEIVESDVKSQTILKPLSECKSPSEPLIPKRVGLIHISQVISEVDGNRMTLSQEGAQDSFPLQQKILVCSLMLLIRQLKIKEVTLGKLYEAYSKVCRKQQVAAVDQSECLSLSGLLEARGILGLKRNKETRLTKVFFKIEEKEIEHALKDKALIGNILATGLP
# UniProt Q9Y5S2: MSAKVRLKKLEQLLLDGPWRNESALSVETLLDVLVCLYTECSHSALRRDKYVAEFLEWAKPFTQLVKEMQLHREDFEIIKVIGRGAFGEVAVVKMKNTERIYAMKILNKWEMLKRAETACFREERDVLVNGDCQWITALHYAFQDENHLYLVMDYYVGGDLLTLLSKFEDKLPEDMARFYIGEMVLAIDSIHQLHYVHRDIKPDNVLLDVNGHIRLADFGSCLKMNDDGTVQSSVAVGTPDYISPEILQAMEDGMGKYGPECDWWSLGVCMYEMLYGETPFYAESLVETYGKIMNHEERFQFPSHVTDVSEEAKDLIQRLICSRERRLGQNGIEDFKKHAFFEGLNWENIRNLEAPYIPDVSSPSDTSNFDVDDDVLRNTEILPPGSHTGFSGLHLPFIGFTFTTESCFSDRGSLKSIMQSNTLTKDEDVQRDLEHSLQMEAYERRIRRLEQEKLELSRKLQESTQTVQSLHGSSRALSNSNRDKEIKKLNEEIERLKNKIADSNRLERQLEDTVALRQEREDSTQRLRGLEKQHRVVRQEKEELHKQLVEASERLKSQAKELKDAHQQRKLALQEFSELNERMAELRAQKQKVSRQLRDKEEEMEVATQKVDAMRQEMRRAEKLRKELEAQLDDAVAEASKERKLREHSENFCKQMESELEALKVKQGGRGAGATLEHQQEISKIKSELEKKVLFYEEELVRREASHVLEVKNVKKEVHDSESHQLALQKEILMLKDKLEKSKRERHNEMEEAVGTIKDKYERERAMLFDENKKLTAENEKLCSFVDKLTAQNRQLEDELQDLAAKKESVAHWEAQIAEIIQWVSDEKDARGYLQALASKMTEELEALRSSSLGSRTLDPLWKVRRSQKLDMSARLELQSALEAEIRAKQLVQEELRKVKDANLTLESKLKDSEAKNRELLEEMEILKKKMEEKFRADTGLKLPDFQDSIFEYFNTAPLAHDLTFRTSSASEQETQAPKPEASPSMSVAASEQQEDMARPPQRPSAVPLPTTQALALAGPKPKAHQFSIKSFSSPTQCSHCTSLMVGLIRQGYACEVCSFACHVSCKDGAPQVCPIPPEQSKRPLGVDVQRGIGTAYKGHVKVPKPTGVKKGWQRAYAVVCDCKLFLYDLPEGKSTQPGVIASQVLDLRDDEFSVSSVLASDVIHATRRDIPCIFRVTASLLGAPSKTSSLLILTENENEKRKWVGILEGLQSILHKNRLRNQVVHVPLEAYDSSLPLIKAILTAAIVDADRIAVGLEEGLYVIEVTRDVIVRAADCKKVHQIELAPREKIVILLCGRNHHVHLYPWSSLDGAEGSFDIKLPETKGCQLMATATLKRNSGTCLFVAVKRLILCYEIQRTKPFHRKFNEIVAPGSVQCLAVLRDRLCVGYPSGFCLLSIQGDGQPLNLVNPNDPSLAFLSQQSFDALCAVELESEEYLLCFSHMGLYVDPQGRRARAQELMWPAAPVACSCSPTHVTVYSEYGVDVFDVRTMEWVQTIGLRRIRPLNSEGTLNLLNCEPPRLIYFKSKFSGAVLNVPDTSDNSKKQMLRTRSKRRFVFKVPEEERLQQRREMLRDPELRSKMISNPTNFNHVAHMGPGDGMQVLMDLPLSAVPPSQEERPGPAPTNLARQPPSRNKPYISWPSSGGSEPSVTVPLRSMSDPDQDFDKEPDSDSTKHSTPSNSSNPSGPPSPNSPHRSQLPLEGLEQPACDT
# UniProt Q5VV42: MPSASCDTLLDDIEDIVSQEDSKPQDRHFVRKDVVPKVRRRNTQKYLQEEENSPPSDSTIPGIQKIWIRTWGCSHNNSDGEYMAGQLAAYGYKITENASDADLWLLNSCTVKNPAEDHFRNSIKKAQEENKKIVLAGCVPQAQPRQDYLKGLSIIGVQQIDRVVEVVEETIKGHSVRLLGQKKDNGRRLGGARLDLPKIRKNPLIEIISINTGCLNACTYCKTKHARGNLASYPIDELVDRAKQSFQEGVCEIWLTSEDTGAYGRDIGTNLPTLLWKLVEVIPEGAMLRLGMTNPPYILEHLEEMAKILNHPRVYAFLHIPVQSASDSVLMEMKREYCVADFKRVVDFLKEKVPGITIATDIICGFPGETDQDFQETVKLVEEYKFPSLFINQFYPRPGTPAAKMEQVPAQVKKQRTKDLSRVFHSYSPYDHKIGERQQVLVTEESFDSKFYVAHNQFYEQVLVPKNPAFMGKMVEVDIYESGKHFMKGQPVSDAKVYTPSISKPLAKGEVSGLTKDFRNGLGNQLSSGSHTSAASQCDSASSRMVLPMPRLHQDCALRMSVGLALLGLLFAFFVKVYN
# UniProt Q8TEP8: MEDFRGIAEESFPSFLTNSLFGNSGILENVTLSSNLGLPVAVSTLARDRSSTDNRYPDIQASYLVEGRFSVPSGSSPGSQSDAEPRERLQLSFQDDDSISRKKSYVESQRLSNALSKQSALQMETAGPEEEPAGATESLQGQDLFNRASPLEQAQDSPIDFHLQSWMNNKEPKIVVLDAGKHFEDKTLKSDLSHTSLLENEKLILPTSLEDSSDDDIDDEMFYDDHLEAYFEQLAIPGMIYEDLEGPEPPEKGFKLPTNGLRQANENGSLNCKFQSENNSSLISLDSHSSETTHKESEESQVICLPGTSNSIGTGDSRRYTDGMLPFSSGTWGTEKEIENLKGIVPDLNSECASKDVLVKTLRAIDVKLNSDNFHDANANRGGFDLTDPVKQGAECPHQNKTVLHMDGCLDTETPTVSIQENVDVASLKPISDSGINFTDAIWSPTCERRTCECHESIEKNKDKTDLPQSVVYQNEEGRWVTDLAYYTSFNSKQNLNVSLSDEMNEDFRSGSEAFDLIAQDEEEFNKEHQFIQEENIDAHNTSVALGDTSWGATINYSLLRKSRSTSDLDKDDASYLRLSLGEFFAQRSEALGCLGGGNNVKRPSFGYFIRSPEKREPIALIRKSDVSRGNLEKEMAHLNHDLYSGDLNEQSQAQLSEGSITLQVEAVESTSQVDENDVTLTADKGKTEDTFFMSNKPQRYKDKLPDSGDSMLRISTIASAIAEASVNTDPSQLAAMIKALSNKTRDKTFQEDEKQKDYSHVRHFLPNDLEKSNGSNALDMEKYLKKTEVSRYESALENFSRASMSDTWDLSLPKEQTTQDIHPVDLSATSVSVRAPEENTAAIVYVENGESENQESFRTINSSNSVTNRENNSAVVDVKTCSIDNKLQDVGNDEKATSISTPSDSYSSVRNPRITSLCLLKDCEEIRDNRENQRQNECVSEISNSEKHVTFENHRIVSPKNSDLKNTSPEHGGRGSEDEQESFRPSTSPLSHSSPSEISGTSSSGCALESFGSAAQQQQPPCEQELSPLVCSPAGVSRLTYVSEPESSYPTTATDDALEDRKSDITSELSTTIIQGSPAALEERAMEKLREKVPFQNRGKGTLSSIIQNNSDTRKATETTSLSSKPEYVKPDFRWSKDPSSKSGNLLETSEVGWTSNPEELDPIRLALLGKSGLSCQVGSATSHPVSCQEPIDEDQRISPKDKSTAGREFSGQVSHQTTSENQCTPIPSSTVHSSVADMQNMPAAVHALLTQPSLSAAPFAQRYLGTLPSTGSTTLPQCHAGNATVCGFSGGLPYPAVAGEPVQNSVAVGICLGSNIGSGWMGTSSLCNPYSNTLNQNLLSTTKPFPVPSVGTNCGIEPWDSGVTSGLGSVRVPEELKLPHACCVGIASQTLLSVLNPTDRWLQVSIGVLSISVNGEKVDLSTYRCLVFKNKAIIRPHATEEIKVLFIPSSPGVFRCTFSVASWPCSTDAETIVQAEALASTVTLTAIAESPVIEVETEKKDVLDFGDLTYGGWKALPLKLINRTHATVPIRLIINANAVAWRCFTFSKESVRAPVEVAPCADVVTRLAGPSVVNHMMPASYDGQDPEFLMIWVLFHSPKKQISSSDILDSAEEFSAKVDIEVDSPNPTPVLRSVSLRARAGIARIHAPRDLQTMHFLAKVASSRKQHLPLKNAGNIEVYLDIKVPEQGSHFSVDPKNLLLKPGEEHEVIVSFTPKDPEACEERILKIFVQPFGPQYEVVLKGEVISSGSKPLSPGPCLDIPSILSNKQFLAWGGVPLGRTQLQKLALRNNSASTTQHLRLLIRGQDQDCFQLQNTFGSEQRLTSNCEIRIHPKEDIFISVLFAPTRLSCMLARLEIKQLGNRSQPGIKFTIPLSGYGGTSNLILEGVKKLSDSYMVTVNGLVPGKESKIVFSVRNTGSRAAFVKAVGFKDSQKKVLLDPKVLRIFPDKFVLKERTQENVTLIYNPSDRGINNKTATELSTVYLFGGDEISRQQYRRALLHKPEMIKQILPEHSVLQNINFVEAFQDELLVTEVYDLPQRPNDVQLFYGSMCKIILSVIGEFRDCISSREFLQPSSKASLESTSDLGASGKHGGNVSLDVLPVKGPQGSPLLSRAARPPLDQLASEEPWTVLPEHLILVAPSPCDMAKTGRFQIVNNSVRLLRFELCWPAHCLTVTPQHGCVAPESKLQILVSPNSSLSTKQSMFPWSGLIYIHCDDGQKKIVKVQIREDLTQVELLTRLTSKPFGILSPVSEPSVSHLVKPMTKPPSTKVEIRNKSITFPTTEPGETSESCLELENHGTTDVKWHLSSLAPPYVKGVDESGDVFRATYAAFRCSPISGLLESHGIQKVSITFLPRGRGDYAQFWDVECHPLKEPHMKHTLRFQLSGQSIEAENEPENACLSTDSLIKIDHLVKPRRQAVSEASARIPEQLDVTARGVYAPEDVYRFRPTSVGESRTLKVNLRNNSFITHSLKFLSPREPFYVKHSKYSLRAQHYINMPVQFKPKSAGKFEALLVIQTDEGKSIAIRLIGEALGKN
# Some of the results follow. The data scatter; read single values as rough.
# Compound: ClCC(=O)N[C@@H]1CCCc2ccccc12
# Assay: log2 mean competition ratio of IA-DTB cysteine labelling (DMSO/compound) (log2 ratio); higher = stronger cysteine engagement by compound
# Conditions: 50 µM; treatment time: 4 h; cell line lysate: HEK293T
# Procedure: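 IA-DTB competitive cysteine chemoproteomics in HEK293T RIPA lysate. Lysates were treated with compound 29 or 30 at 50 or 200 µM for 4 h, then IA-DTB (500 µM, 1 h), trypsin-digested, NeutrAvidin-enriched and analysed by diaPASEF. Competition ratio = intensity DMSO / intensity compound (n=4 treated, n=64 DMSO); binding: mean log2 CR ≥ 1 and p ≤ 0.05 plus QC filters. Target is the cysteine site.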
row,Target,log2 mean competition ratio
1,CFAP97 C504 (UniProt Q9P2B7),0.104
2,CC2D1A C310 (UniProt Q6P1N0),-0.297
3,CCT4 C337 (UniProt P50991),-0.35
4,CDK5RAP2 C528 (UniProt Q96SN8),-0.000374
5,CDX2 C166,0.236
6,CFL1 C139,0.499
7,CENPQ C121 (UniProt Q7L2Z9),-0.00994
8,CENPF C503 (UniProt P49454),0.0166

# Same assay, conditions: 200 µM; treatment time: 4 h; cell line lysate: HEK293T
row,Target,log2 mean competition ratio
1,CEP250 C110 (UniProt Q9BV73),-0.0347
2,CDK8 C291 (UniProt P49336),0.337
3,CENPF C1233 (UniProt P49454),0.397
4,CDC6 C417 (UniProt Q99741),0.287
5,CDC42BPB C1075 (UniProt Q9Y5S2),-0.00592
6,CHD4 C1827,0.101
7,CENPE C714 (UniProt Q02224),0.331
8,CDC6 C156 (UniProt Q99741),-0.701
9,CCDC120 C391,0.00674
10,CCT2 C395 (UniProt P78371),-0.175
11,CDCA2 C188 (UniProt Q69YH5),0.436
12,CDK6 C15 (UniProt Q00534),-0.0205
13,CDC42EP4 C313 (UniProt Q9H3Q1),-0.0571
14,CCM2 C170 (UniProt Q9BSQ5),0.0462
15,CHAMP1 C592 (UniProt Q96JM3),0.145
16,CDKAL1 C556 (UniProt Q5VV42),0.204
17,CEP192 C1828 (UniProt Q8TEP8),0.104
18,CCT5 C377 (UniProt P48643),-0.191
19,CDIN1 C14,-0.264
20,CCNH C57 (UniProt P51946),0.0436

# Reprinted at random: 2 records from the list
row,Target,log2 mean competition ratio
8,CDC6 C156 (UniProt Q99741),-0.701
1,CEP250 C110 (UniProt Q9BV73),-0.0347
